# From paper PMC10575946
# Amino acid sequences for entries named in this document (tags omitted).
# UniProt Q9UHB6: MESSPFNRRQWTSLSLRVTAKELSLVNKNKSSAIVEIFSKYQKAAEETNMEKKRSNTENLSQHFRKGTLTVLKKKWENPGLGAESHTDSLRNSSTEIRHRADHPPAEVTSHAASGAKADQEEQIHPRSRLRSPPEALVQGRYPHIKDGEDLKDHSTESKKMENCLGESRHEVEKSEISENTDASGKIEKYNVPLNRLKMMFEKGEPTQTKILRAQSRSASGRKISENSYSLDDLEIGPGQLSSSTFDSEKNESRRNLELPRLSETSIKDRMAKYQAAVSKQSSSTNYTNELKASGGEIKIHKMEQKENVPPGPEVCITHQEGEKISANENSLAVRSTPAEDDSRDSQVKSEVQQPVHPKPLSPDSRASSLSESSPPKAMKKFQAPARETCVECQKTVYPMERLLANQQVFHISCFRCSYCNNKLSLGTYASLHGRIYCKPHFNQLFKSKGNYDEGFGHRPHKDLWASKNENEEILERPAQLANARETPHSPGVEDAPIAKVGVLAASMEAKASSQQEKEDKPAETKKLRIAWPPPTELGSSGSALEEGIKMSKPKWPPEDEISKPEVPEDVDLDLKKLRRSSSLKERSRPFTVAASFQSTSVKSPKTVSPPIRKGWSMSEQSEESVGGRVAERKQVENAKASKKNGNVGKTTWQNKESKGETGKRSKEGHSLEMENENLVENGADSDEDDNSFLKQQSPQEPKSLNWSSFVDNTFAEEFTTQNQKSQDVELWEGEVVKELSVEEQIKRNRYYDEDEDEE
# Residue numbers refer to the chain shown, from its start. Results are given in words; binding and its absence hold for the method and conditions named. In cells and extracts the contact can be indirect. Some results given as binding are weak or reduced against the parent protein; the word gives no strength. Tags and fused reporters may be left off the sequences shown.
# B1: NPC1L1-3×Myc-EGFP (human Niemann-Pick C1-like 1, wild type) (protein, UniProt Q9UHC9-2 22-1332)
# chain: EPYTTIHQPGYCAFYDECGKNPELSGSLMTLSNVSCLSNTPARKITGDHLILLQKICPRLYTGPNTQACCSAKQLVSLEASLSITKALLTRCPACSDNFVNLHCHNTCSPNQSLFINVTRVAQLGAGQLPAVVAYEAFYQHSFAEQSYDSCSRVRVPAAATLAVGTMCGVYGSALCNAQRWLNFQGDTGNGLAPLDITFHLLEPGQAVGSGIQPLNEGVARCNESQGDDVATCSCQDCAASCPAIARPQALDSTFYLGQMPGSLVLIIILCSVFAVVTILLVGFRVAPARDKSKMVDPKKGTSLSDKLSFSTHTLLGQFFQGWGTWVASWPLTILVLSVIPVVALAAGLVFTELTTDPVELWSAPNSQARSEKAFHDQHFGPFFRTNQVILTAPNRSSYRYDSLLLGPKNFSGILDLDLLLELLELQERLRHLQVWSPEAQRNISLQDICYAPLNPDNTSLYDCCINSLLQYFQNNRTLLLLTANQTLMGQTSQVDWKDHFLYCANAPLTFKDGTALALSCMADYGAPVFPFLAIGGYKGKDYSEAEALIMTFSLNNYPAGDPRLAQAKLWEEAFLEEMRAFQRRMAGMFQVTFMAERSLEDEINRTTAEDLPIFATSYIVIFLYISLALGSYSSWSRVMVDSKATLGLGGVAVVLGAVMAAMGFFSYLGIRSSLVILQVVPFLVLSVGADNIFIFVLEYQRLPRRPGEPREVHIGRALGRVAPSMLLCSLSEAICFFLGALTPMPAVRTFALTSGLAVILDFLLQMSAFVALLSLDSKRQEASRLDVCCCVKPQELPPPGQGEGLLLGFFQKAYAPFLLHWITRGVVLLLFLALFGVSLYSMCHISVGLDQELALPKDSYLLDYFLFLNRYFEVGAPVYFVTTLGYNFSSEAGMNAICSSAGCNNFSFTQKIQYATEFPEQSYLAIPASSWVDDFIDWLTPSSCCRLYISGPNKDKFCPSTVNSLNCLKNCMSITMGSVRPSVEQFHKYLPWFLNDRPNIKCPKGGLAAYSTSVNLTSDGQVLTSRFMAYHKPLKNSQDYTEALRAARELAANITADLRKVPGTDPAFEVFPYTITNVFYEQYLTILPEGLFMLSLCLVPTFAVSCLLLGLDLRSGLLNLLSIVMILVDTVGFMALWGISYNAVSLINLVSAVGMSVEFVSHITRSFAISTKPTWLERAKEATISMGSAVFAGVAMTNLPGILVLGLAKAQLIQIFFFRLNLLITLLGLLHGLVFLPVILSYVGPDVNPALALEQKRAEEAVAAVMVASCPNHPSRVSTADNIYVNHSFEGSIKGAGAISNFLPNNGRQF
# B2: NPC1L1-3×Myc-EGFP-A1272LAL→4E (protein, UniProt Q9UHC9-2 22-1332)
# chain: B1 chain with A1251E, L1252E, A1253E, L1254E
# B3: NPC1L1-3×Myc-EGFP-ΔA1272LAL (protein, UniProt Q9UHC9-2)
# chain: EPYTTIHQPGYCAFYDECGKNPELSGSLMTLSNVSCLSNTPARKITGDHLILLQKICPRLYTGPNTQACCSAKQLVSLEASLSITKALLTRCPACSDNFVNLHCHNTCSPNQSLFINVTRVAQLGAGQLPAVVAYEAFYQHSFAEQSYDSCSRVRVPAAATLAVGTMCGVYGSALCNAQRWLNFQGDTGNGLAPLDITFHLLEPGQAVGSGIQPLNEGVARCNESQGDDVATCSCQDCAASCPAIARPQALDSTFYLGQMPGSLVLIIILCSVFAVVTILLVGFRVAPARDKSKMVDPKKGTSLSDKLSFSTHTLLGQFFQGWGTWVASWPLTILVLSVIPVVALAAGLVFTELTTDPVELWSAPNSQARSEKAFHDQHFGPFFRTNQVILTAPNRSSYRYDSLLLGPKNFSGILDLDLLLELLELQERLRHLQVWSPEAQRNISLQDICYAPLNPDNTSLYDCCINSLLQYFQNNRTLLLLTANQTLMGQTSQVDWKDHFLYCANAPLTFKDGTALALSCMADYGAPVFPFLAIGGYKGKDYSEAEALIMTFSLNNYPAGDPRLAQAKLWEEAFLEEMRAFQRRMAGMFQVTFMAERSLEDEINRTTAEDLPIFATSYIVIFLYISLALGSYSSWSRVMVDSKATLGLGGVAVVLGAVMAAMGFFSYLGIRSSLVILQVVPFLVLSVGADNIFIFVLEYQRLPRRPGEPREVHIGRALGRVAPSMLLCSLSEAICFFLGALTPMPAVRTFALTSGLAVILDFLLQMSAFVALLSLDSKRQEASRLDVCCCVKPQELPPPGQGEGLLLGFFQKAYAPFLLHWITRGVVLLLFLALFGVSLYSMCHISVGLDQELALPKDSYLLDYFLFLNRYFEVGAPVYFVTTLGYNFSSEAGMNAICSSAGCNNFSFTQKIQYATEFPEQSYLAIPASSWVDDFIDWLTPSSCCRLYISGPNKDKFCPSTVNSLNCLKNCMSITMGSVRPSVEQFHKYLPWFLNDRPNIKCPKGGLAAYSTSVNLTSDGQVLTSRFMAYHKPLKNSQDYTEALRAARELAANITADLRKVPGTDPAFEVFPYTITNVFYEQYLTILPEGLFMLSLCLVPTFAVSCLLLGLDLRSGLLNLLSIVMILVDTVGFMALWGISYNAVSLINLVSAVGMSVEFVSHITRSFAISTKPTWLERAKEATISMGSAVFAGVAMTNLPGILVLGLAKAQLIQIFFFRLNLLITLLGLLHGLVFLPVILSYVGPDVNPEQKRAEEAVAAVMVASCPNHPSRVSTADNIYVNHSFEGSIKGAGAISNFLPNNGRQF
# Molecular target: LIMA1-FLAG (human LIM domain and actin binding 1) (human) (UniProt Q9UHB6)
# Assay: co-IP; LIMA1-FLAG precipitated with anti-FLAG agarose beads (4 °C, 2 h) from CRL1601 cell lysates in NP40 buffer (0.5% NP40 in PBS, 5 mmol/L EDTA and EGTA), NPC1L1 variants found by immunoblotting; cells treated for 10 min before harvest with vehicle, BA mixture, GDCA, TDCA, TCA or 3% CDX
row,binding,Binder
1,binds,B1
2,binds,B2
3,binds,B3
